Several values for one entry are separate records, joined by “and”; a condition that tells them apart may be missing. Equal values may be shown once. Where a name gives a salt, the structure may show the parent alone. The list shows a part of the results. Repeats in this data set agree poorly, so a single value says little.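 The human kidney-derived cells carry a stably integrated construct of eight TEAD-binding elements driving luciferase, read by luminescence in a drug-repurposing library screen. A compound counts as a hit when its signal is more than five robust Z scores above the plate mean.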
System: HEK293A TEAD-LUC reporter
Experiment: TEAD-luciferase reporter activity (YAP activation), robust Z score vs plate; higher = stronger YAP/TEAD activation
Conditions: 24 h

SMILES	TEAD-luciferase reporter activity (compound concentration: 200 nM)	TEAD-luciferase reporter activity (compound concentration: 2 uM)	TEAD-luciferase reporter activity (compound concentration: 10 uM)
Cc1nc(C(=O)NCC(=O)O)c(O)c2ccc(Oc3ccccc3)cc12 [Roxadustat]	inactive: -1.24	inactive: -1.7	inactive: 0.618
Clc1ccc(COC(Cn2ccnc2)c2ccc(Cl)cc2Cl)cc1 (stereo not drawn)	inactive: -1.51 and inactive: 0.596	inactive: 1.72	inactive: -1.12 and inactive: -0.472
Clc1ccc(COC(Cn2ccnc2)c2ccc(Cl)cc2Cl)cc1 (stereo not drawn) [Econazole nitrate]	–	inactive: 1.08	–
CN1CCN(C(=O)C2C3CCC(O3)C2C(=O)O)CC1 (stereo not drawn)	inactive: -0.925	–	inactive: -0.0727
O=C(O)c1ccc(/N=N/c2ccc(O)c(C(=O)O)c2)cc1 [Salicylazobenzoic acid]	inactive: -0.685	inactive: 0.156	inactive: -0.615
Cc1cc(S(N)(=O)=O)ccc1NC(=O)COc1ccc(Cl)cc1C(=O)c1cc(Cl)cc(C#N)c1	inactive: 2.6	inactive: -1.38	inactive: -0.118
CC(CNC(=O)c1ccccc1)C(=O)OCC(=O)C12OC(C)(C)O[C@@H]1C[C@H]1[C@@H]3CCC4=CC(=O)C=CC4(C)[C@@]3(F)[C@@H](O)CC12C (stereo partly drawn) [Triamcinolone benetonide]	inactive: 1.33	inactive: -0.799	inactive: 2.92
C[C@@H](O)c1nc2cnc3ccsc3c2n1[C@H]1CC[C@H](CC#N)OC1	inactive: -1.43	inactive: 0.0743	inactive: 1.61
CCC(=O)N1CC[C@H](Nc2ncnc3c2CN(c2cnc(OC)c(C(F)(F)F)c2)CC3)C1	inactive: -0.341	inactive: -1.03	inactive: 1.43
C[C@@H](OC[C@@]1(c2ccccc2)CC[C@](C#N)(n2cn[nH]c2=O)CN1)c1cc(C(F)(F)F)cc(C(F)(F)F)c1	inactive: -0.683	inactive: 1.24	inactive: 1.17
C=CCNC(=O)[C@H]1N(C(=O)[C@@H](O)[C@H](Cc2ccccc2)NC(=O)c2cccc(O)c2C)CSC1(C)C	inactive: -1.31	inactive: 0.665	inactive: 0.198
CCC1(CC)COC(=O)NC1=O	inactive: -0.958	inactive: -2.67	inactive: -0.981
CN(C)[C@@H]1C(=O)C(C(N)=O)C(=O)[C@@]2(O)C(=O)C3C(=O)c4c(O)c(NC(=O)CN5CCCC5)cc(F)c4C[C@H]3C[C@@H]12 (stereo partly drawn) [eravacycline]	inactive: 0.594	inactive: -0.055	active: 11.3
CCCCc1ccc(O)cc1O [Rucinol]	inactive: 0.0121	active: 5.28	inactive: 1.38
COc1ccc(CCN2CCN(CCCc3ccccc3)CC2)cc1OC [cutamesine dihydrochloride]	inactive: -0.677	inactive: -1.44	inactive: 1.61
COCCCN1CC[C@@H](CNC(=O)c2cc(Cl)c(N)c3c2OC(C)(C)C3)[C@H](O)C1 [Revexepride]	inactive: -0.919	inactive: 0.459	inactive: 0.173
CCC(=O)N1Cc2ccccc2CC2(CCCN2CC2CCCC2)C1 (stereo not drawn)	active: 6.87	–	inactive: 0.0539
COc1ccccc1Oc1c(NS(=O)(=O)c2ccc(C)cn2)nc(-c2ccncc2)nc1OC [Avosentan]	inactive: 1.07	inactive: -1.13	inactive: 2.57
CC(C)Oc1ccc(C(=O)N[C@H](CNC(=O)CN(C)C)Cc2ccc(-c3cn4cccc([C@H](C)O)c4n3)cc2)cc1Cl	inactive: -0.00807	inactive: -0.666	inactive: 2.54
Cc1cc(O)c2c(O)c3c(O)cccc3cc2c1	inactive: -0.862	inactive: -1.94	inactive: 0.849
Nc1ncnc2c1ncn2CCOC[P@@]1(=O)OCC[C@@H](c2cccc(Cl)c2)O1 [Pradefovir]	inactive: -0.126	–	inactive: 0.024
CNC(=N)NC(=O)Nc1c(C)cccc1C [lidamidine]	inactive: -0.13	inactive: -0.611	inactive: 2.4
N#CCC(=O)N/N=C/c1c[n+]([O-])c2ccccc2[n+]1[O-]	inactive: 0.138	inactive: -0.66	inactive: -0.496
CCC1Cc2cc(CC(=O)O)ccc2O1 (stereo not drawn) [furofenac]	inactive: -1.23	inactive: -0.991	inactive: -1.48
Nc1ccc(S(=O)(=O)Nc2ccc(Cl)nn2)cc1	inactive: -2.31	inactive: -0.032	inactive: 0.341
CCCCNC(=O)NS(=O)(=O)c1ccc(N)cc1	inactive: -0.306	inactive: 2.26	inactive: 3.58
CS(=O)CC(=O)c1ccccn1 (stereo not drawn)	inactive: -1.61	inactive: 2.88	inactive: -1.51
COc1cc(C[C@@H](CO[C@@H]2O[C@H](CO)[C@@H](O)[C@H](O)[C@H]2O)[C@H](CO[C@@H]2O[C@H](CO)[C@@H](O)[C@H](O)[C@H]2O)Cc2ccc(O)c(OC)c2)ccc1O [Secoisolariciresinol diglucoside]	inactive: -0.664	inactive: -1.23	inactive: -1.24

SMILES	TEAD-luciferase reporter activity (compound concentration: 200 nM)	TEAD-luciferase reporter activity (compound concentration: 2 uM)	TEAD-luciferase reporter activity (compound concentration: 10 uM)
OC[C@H]1O[C@@H](n2cnc3c(NC4CCCCC4)ncnc32)[C@H](O)[C@@H]1O	inactive: 0.18	inactive: -1.47	inactive: -1.4
NC(=O)C(=O)N/N=C/c1ccc([N+](=O)[O-])o1 [Furamazone]	inactive: 0.0911	inactive: 0.185	inactive: 2.11
O=C(N[C@@H](Cc1ccc(O)cc1)C(=O)O)c1ccc(-c2ccc(C(F)(F)F)cc2)cc1	inactive: -0.858	inactive: -0.773	inactive: -0.566
CCc1oc2ccccc2c1C(=O)c1cc(I)c(O)c(I)c1	inactive: -1.02	inactive: -1.36	inactive: -2.42
Clc1cc(Cl)c2c(c1)N=C1CCCCCN1C2	inactive: 1.02	inactive: -0.965	inactive: 0.396
Cc1c(Nc2ncc[nH]2)ccc2c1OCCO2	inactive: 2.46	inactive: -1.53	inactive: -0.141
Clc1ccc(C(Cn2ccnc2)OCc2csc3c(Cl)cccc23)c(Cl)c1 (stereo not drawn) [Sertaconazole]	inactive: -1.07	–	inactive: -0.559
Clc1ccc(C(Cn2ccnc2)OCc2csc3c(Cl)cccc23)c(Cl)c1 (stereo not drawn) [arasertaconazole]	–	inactive: -1.78	–
COc1ccccc1NS(=O)(=O)c1cccc(NC(=O)Nc2ccc(F)cc2)c1	inactive: -0.754	inactive: -1.13	inactive: -1.91
CCC(=O)SCC(=O)[C@@]1(O)CC[C@H]2[C@@H]3CCC4=CC(=O)CC[C@]4(C)[C@H]3[C@@H](O)C[C@@]21C	inactive: 0.305	inactive: 0.0994	inactive: 0.562
CCCNC(=O)c1cnc2n1CCc1ccccc1C21CCNCC1	inactive: 1.25	inactive: -1.72	inactive: -0.226
CC1(C)SC2C(NC(=O)[C@H](C(=O)O)c3ccsc3)C(=O)N2C1C(=O)O (stereo partly drawn) [Timentin]	inactive: -0.285	inactive: 0.0943	inactive: 3.42
C[C@@H](O)C1C(=O)N2C(C(=O)O)=C(S[C@@H]3CN[C@H](C(=O)N(C)C)C3)[C@H](C)C12 (stereo partly drawn) [Meropenem]	–	inactive: 0.541	–
CCOc1ccc2nc(SC(C)(C(=O)O)c3ccccc3)sc2c1 (stereo not drawn) [tazasubrate]	inactive: 3.45	inactive: 1.81	inactive: 4.51
N=C(N)N1CCC[C@@H](CNC(=O)C[C@H](NS(=O)(=O)c2ccc3ccccc3c2)C(=O)N(CC(=O)O)C2CC2)C1	inactive: -2.06	inactive: -1.02	inactive: 0.294
Cc1ccc2c(c1)C(=O)C([N+](=O)[O-])C2=O (stereo not drawn)	active: 8.21	inactive: -0.291	inactive: -1.02
Cc1ncc(CSSCc2cnc(C)c(O)c2CO)c(CO)c1O	inactive: -1.02	inactive: 2.85	inactive: 1.62
CC1(C)S[C@@H]2[C@H](/N=C/N3CCCCCC3)C(=O)N2[C@H]1C(=O)O	inactive: -1.59	–	inactive: -1.27
CC1(C)S[C@@H]2[C@H](/N=C/N3CCCCCC3)C(=O)N2[C@H]1C(=O)O [mecillinam]	–	inactive: -1.94	–
Cc1ccc(C(=O)N2CCC(C(=O)N3CCC(N4Cc5ccccc5C4=O)CC3)CC2)cc1	inactive: 1.03	–	inactive: -0.28
Cc1cc2c(C(N)=O)cccc2n1-c1nc2c(c(NCc3ccccc3)n1)COCC2	inactive: -1.53	inactive: -3.02	inactive: -0.00137
CC(C)c1cccc(C(C)C)c1NC(=O)NCC1(c2ccccc2)CCCC1	inactive: -2.48	inactive: -0.384	inactive: -0.635
O=[N+]([O-])c1ccc(NN=C(c2ccc(O)cc2)c2ccc(O)cc2)c([N+](=O)[O-])c1 [sivifene]	inactive: -0.592	inactive: -0.108	inactive: -2.17
O=C(OC[C@H]1O[C@](O)(COC(=O)c2cccnc2)[C@@H](OC(=O)c2cccnc2)[C@@H]1OC(=O)c1cccnc1)c1cccnc1	inactive: 1.28	inactive: -1.19	inactive: 0.718
CCN(CC)C(=O)[C@]1(c2ccccc2)C[C@@H]1CN [Milnacipran]	inactive: -1.45	–	inactive: -0.34
CCN(CC)C(=O)[C@]1(c2ccccc2)C[C@@H]1CN [levomilnacipran]	–	inactive: 1.48	–
COc1cc(Cc2cnc(N)nc2N)cc(OC)c1Br [brodimoprim]	inactive: 0.865	inactive: -2.93	inactive: 0.274

A stretch of the results above:
SMILES	TEAD-luciferase reporter activity (compound concentration: 200 nM)	TEAD-luciferase reporter activity (compound concentration: 2 uM)	TEAD-luciferase reporter activity (compound concentration: 10 uM)
Cc1c(Nc2ncc[nH]2)ccc2c1OCCO2	inactive: 2.46	inactive: -1.53	inactive: -0.141
Clc1ccc(C(Cn2ccnc2)OCc2csc3c(Cl)cccc23)c(Cl)c1 (stereo not drawn) [Sertaconazole]	inactive: -1.07	–	inactive: -0.559
Clc1ccc(C(Cn2ccnc2)OCc2csc3c(Cl)cccc23)c(Cl)c1 (stereo not drawn) [arasertaconazole]	–	inactive: -1.78	–
COc1ccccc1NS(=O)(=O)c1cccc(NC(=O)Nc2ccc(F)cc2)c1	inactive: -0.754	inactive: -1.13	inactive: -1.91
CCC(=O)SCC(=O)[C@@]1(O)CC[C@H]2[C@@H]3CCC4=CC(=O)CC[C@]4(C)[C@H]3[C@@H](O)C[C@@]21C	inactive: 0.305	inactive: 0.0994	inactive: 0.562
CCCNC(=O)c1cnc2n1CCc1ccccc1C21CCNCC1	inactive: 1.25	inactive: -1.72	inactive: -0.226
CC1(C)SC2C(NC(=O)[C@H](C(=O)O)c3ccsc3)C(=O)N2C1C(=O)O (stereo partly drawn) [Timentin]	inactive: -0.285	inactive: 0.0943	inactive: 3.42
C[C@@H](O)C1C(=O)N2C(C(=O)O)=C(S[C@@H]3CN[C@H](C(=O)N(C)C)C3)[C@H](C)C12 (stereo partly drawn) [Meropenem]	–	inactive: 0.541	–
CCOc1ccc2nc(SC(C)(C(=O)O)c3ccccc3)sc2c1 (stereo not drawn) [tazasubrate]	inactive: 3.45	inactive: 1.81	inactive: 4.51
N=C(N)N1CCC[C@@H](CNC(=O)C[C@H](NS(=O)(=O)c2ccc3ccccc3c2)C(=O)N(CC(=O)O)C2CC2)C1	inactive: -2.06	inactive: -1.02	inactive: 0.294
Cc1ccc2c(c1)C(=O)C([N+](=O)[O-])C2=O (stereo not drawn)	active: 8.21	inactive: -0.291	inactive: -1.02
Cc1ncc(CSSCc2cnc(C)c(O)c2CO)c(CO)c1O	inactive: -1.02	inactive: 2.85	inactive: 1.62
CC1(C)S[C@@H]2[C@H](/N=C/N3CCCCCC3)C(=O)N2[C@H]1C(=O)O	inactive: -1.59	–	inactive: -1.27
CC1(C)S[C@@H]2[C@H](/N=C/N3CCCCCC3)C(=O)N2[C@H]1C(=O)O [mecillinam]	–	inactive: -1.94	–
Cc1ccc(C(=O)N2CCC(C(=O)N3CCC(N4Cc5ccccc5C4=O)CC3)CC2)cc1	inactive: 1.03	–	inactive: -0.28
Cc1cc2c(C(N)=O)cccc2n1-c1nc2c(c(NCc3ccccc3)n1)COCC2	inactive: -1.53	inactive: -3.02	inactive: -0.00137
CC(C)c1cccc(C(C)C)c1NC(=O)NCC1(c2ccccc2)CCCC1	inactive: -2.48	inactive: -0.384	inactive: -0.635

— the supplement of paper PMC10735217
